Data taken from ChEMBL document CHEMBL1152717, “Discovery of mu-opioid selective ligands derived from 1-aminotetralin scaffolds made via metal-catalyzed ring-opening reactions” (Bioorg Med Chem Lett, 2009).

Chains of the proteins cited; added tags and fusions are not shown.
UniProt P35372, whole entry: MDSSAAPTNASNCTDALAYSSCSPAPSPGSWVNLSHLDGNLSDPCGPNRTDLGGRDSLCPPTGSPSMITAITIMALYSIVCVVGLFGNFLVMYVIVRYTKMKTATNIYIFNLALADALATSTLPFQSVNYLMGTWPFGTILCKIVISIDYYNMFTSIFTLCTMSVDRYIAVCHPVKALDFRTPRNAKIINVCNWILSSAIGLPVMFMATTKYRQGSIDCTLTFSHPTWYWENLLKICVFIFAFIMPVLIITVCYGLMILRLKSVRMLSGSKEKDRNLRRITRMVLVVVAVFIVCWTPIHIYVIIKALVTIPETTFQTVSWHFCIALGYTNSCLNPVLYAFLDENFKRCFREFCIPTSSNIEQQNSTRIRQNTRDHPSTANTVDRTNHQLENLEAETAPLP

Target: Mu-type opioid receptor (Homo sapiens, UniProt P35372)
Experiment: Agonist activity at human cloned mu opioid receptor by [35S]GTPgammaS binding assay
Assay type: functional

Work on C[C@@]12CCCCC[C@@H](Cc3ccc(O)cc31)[C@@H]2N [DEZOCINE] yielded an EC50 of 38 nM.
